The source of these data is the supplement of paper PMC10849652.

Sequences of proteins named here, by UniProt entry; tags and fusion partners are left off. A change or cut given only in a name is not applied to a line headed by its entry.
UniProt P13995: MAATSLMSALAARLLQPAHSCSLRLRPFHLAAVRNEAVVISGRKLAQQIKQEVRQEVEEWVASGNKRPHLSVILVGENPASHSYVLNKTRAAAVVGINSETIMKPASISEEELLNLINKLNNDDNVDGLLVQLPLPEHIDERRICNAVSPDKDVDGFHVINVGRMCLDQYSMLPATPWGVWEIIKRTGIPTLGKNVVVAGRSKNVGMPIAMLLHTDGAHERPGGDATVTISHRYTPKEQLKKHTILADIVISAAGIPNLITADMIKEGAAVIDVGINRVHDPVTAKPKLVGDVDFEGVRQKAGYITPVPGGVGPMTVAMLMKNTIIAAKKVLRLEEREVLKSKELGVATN
UniProt P00156: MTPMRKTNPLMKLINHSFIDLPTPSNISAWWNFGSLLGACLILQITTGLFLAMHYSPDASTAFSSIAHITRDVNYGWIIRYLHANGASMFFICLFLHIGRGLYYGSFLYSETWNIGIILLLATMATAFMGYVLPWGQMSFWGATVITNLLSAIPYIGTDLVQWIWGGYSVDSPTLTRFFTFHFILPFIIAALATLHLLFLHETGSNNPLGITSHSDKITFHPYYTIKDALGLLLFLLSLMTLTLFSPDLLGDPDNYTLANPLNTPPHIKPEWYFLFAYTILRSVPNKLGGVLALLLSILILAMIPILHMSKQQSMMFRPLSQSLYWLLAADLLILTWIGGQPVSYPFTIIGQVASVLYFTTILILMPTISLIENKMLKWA
UniProt P35749, whole entry, looked up: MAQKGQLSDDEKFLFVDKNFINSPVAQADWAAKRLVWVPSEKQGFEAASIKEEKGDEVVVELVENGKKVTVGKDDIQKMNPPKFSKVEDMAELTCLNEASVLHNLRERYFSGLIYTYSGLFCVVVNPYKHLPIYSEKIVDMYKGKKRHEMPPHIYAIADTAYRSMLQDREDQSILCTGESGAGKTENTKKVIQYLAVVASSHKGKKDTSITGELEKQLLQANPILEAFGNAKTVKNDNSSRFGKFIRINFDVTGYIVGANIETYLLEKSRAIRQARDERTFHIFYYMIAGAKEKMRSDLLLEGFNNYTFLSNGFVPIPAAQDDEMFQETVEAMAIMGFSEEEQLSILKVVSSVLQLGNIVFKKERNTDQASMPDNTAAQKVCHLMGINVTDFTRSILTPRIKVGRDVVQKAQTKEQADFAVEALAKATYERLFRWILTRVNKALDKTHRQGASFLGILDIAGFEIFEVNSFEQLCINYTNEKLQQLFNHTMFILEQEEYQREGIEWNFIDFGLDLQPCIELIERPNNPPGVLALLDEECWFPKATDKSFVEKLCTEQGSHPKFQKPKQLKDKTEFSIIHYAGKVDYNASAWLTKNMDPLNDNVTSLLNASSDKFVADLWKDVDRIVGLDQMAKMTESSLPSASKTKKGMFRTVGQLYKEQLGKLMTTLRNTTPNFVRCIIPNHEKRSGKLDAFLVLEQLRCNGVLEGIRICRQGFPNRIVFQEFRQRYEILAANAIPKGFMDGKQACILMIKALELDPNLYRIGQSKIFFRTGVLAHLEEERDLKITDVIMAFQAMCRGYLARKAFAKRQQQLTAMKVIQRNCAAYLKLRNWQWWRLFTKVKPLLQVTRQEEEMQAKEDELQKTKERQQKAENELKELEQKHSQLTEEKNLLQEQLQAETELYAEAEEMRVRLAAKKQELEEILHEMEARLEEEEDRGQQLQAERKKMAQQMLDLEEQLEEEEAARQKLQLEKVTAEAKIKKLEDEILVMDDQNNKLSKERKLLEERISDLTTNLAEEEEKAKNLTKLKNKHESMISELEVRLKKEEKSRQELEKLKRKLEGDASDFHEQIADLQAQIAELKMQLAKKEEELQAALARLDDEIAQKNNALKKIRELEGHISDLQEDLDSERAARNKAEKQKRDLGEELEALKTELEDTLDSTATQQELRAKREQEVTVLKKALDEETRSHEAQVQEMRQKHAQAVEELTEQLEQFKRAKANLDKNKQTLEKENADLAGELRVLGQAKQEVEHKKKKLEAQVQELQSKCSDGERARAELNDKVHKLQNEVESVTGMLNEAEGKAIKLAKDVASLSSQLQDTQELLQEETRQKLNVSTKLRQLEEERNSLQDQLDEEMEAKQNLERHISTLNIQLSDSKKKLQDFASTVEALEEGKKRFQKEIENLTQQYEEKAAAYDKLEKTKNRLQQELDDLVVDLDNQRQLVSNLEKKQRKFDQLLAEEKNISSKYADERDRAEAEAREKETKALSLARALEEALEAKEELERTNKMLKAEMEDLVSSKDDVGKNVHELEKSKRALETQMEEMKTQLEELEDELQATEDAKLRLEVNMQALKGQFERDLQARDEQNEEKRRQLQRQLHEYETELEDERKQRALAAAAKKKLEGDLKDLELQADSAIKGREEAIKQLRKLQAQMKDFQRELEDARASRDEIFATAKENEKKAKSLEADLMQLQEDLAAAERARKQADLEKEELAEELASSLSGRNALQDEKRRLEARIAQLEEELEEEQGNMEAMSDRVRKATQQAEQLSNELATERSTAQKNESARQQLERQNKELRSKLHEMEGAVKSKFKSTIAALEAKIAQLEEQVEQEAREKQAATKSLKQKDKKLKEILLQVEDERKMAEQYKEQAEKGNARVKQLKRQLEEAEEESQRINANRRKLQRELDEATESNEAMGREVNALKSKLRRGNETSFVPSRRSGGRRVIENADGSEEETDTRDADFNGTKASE
UniProt P00846: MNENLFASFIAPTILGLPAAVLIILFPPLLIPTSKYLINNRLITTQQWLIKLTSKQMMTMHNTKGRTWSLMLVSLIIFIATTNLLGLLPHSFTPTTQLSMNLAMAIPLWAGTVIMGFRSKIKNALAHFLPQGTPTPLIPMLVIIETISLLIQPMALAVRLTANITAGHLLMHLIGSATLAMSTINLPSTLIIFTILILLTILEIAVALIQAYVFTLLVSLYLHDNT
MTHFD1, A0A384N5Y3, UniProt A0A384N5Y3, whole entry, looked up: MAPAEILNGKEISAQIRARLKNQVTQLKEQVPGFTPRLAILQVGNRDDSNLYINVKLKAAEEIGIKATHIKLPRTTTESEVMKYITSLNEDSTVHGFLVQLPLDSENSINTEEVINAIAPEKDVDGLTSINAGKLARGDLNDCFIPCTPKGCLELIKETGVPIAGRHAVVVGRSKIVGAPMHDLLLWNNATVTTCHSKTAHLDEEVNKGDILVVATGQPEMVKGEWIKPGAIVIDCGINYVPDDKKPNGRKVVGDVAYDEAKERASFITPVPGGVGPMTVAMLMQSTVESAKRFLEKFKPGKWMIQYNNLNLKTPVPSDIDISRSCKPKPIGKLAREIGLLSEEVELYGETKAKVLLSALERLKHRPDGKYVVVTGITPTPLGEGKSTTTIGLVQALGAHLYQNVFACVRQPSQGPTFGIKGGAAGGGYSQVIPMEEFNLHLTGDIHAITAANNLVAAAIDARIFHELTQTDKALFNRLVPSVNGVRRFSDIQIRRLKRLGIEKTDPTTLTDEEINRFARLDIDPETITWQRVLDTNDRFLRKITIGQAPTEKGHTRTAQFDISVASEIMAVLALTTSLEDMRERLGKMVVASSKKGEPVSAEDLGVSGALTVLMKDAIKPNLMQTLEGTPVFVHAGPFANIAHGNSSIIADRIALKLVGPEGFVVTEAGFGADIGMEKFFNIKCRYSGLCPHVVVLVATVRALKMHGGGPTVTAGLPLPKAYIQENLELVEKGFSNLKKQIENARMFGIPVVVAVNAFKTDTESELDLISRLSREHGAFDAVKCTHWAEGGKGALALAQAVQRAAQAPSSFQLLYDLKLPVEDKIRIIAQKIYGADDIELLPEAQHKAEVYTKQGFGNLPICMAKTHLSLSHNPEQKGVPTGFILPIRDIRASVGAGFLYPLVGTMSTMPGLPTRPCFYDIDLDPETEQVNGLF
UniProt Q9C0I1: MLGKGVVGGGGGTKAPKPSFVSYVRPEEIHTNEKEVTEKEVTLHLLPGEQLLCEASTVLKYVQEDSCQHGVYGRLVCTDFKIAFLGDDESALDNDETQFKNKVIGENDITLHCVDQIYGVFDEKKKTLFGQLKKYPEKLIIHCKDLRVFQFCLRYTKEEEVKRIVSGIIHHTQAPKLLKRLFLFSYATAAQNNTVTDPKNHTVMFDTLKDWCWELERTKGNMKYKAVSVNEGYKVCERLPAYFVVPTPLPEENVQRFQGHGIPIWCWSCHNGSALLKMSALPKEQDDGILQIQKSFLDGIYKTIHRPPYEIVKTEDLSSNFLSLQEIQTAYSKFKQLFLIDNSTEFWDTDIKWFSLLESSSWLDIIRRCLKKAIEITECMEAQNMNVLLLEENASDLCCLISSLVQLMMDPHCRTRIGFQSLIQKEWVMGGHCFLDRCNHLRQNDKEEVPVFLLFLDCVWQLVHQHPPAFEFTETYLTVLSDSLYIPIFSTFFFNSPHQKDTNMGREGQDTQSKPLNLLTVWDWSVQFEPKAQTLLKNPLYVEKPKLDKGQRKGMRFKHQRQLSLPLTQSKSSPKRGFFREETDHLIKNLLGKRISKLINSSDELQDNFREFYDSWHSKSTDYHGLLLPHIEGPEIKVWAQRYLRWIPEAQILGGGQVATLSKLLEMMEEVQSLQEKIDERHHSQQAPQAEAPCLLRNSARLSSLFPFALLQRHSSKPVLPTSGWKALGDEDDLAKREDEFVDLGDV
UniProt P26038, whole entry, looked up: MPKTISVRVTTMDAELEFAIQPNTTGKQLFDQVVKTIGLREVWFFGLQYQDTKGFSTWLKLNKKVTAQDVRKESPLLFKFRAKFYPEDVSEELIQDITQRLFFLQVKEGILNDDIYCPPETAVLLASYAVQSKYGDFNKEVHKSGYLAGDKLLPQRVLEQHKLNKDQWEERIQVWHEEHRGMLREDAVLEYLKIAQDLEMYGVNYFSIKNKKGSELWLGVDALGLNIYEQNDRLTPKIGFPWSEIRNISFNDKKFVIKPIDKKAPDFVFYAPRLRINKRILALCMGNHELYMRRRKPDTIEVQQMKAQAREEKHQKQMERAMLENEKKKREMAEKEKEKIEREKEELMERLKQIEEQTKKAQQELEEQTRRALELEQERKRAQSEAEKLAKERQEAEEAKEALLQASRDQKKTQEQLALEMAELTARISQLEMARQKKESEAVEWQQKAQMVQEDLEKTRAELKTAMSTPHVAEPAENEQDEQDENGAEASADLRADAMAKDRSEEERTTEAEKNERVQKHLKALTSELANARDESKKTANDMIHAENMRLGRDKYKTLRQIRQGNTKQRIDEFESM
UniProt Q15800: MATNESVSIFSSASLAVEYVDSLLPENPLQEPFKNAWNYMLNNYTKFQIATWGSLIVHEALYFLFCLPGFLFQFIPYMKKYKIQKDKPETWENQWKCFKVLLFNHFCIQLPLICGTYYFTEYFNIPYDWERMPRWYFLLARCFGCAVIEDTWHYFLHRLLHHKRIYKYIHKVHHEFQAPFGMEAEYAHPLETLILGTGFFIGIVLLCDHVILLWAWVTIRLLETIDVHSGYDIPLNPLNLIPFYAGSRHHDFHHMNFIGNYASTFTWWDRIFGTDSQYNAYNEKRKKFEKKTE
UniProt Q96DR8: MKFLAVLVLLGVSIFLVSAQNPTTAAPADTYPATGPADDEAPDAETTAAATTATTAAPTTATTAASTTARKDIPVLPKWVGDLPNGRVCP
UniProt Q969V6: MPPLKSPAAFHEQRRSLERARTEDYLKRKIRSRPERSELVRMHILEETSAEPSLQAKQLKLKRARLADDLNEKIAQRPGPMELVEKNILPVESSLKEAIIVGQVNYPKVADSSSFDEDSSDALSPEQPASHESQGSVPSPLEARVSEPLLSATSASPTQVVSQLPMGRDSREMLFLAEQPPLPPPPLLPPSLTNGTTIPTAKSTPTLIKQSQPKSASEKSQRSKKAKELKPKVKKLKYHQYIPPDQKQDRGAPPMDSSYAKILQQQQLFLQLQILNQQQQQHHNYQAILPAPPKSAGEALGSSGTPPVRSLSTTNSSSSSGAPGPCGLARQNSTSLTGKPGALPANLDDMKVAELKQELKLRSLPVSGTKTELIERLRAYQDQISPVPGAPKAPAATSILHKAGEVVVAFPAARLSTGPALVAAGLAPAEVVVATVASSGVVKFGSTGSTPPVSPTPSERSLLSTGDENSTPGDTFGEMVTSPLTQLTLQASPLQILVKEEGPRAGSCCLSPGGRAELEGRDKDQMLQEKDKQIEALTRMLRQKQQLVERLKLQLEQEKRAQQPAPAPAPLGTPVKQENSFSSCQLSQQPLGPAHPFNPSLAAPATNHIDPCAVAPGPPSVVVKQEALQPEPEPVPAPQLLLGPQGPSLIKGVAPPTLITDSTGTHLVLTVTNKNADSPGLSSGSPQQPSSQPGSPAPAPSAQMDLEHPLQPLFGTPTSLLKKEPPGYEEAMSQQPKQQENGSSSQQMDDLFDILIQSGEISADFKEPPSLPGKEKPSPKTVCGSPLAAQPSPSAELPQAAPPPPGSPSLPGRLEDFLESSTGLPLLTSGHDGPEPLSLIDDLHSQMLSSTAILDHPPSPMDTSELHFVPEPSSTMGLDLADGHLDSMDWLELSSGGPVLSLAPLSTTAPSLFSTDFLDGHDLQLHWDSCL

The other results are listed elsewhere or left out.

Compound in this assay: Cc1ncc(-c2ccnc(Nc3ccc(S(C)(=O)=O)cc3)n2)n1C(C)C
The experiment in a line: log2 fold change, soluble protein after heating vs DMSO (PISA); higher = thermal stabilisation; K562 cells, 10 uM, 30 min; active = over 0.2 and 3.5 SD of the protein, either way, in both replicates (recomputed). The procedure, abridged:
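K562 cells at 2×10^6 cells/mL were exposed to 10 μM compound for 30 min, then aliquots were heated for 3 min across 48°C-58°C, pooled, and extracted in PBS containing 0.5% NP-40 at 4°C. The supernatant after 21,000xg for 90 min was taken as soluble protein and measured by TMTpro 16plex LC-MS/MS with channel sums equalised. Thermal stability is reported relative to control samples, with values from duplicates. Fold changes are given on a log2 scale.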
For MTCH1 (UniProt Q9NZJ7), the log2 fold change was inactive: -0.045. To MTHFD2 (UniProt P13995) belongs inactive: -0.044.

Regarding MT-CYB (UniProt P00156), the log2 fold change was inactive: 0.193. Turning to MYH11 isoform 2 (UniProt P35749), the log2 fold change was inactive: -0.025. To MT-ATP6 (UniProt P00846) belongs inactive: -0.043; to MYO1D (UniProt O94832), inactive: 0.039; to MTHFD1, A0A384N5Y3, inactive: -0.031. To MRRF (UniProt Q96E11) belongs inactive: 0.052. To MTMR12 (UniProt Q9C0I1) belongs inactive: -0.008.

For MSN (UniProt P26038), the log2 fold change was inactive: -0.004. To MSMO1 (UniProt Q15800) belongs inactive: -0.034. MRPS10 (UniProt P82664): the log2 fold change is inactive: -0.046. To MTMR6 (UniProt Q9Y217) belongs inactive: 0.102.

Regarding MUCL1 (UniProt Q96DR8), the log2 fold change was inactive: 0.889. On to MRPS2 (UniProt Q9Y399), for which the log2 fold change was inactive: -0.062. Consider MRPS15 (UniProt P82914), for which the log2 fold change was inactive: 0.07. Consider MRPS27 isoform 2 (UniProt Q92552), for which the log2 fold change is inactive: -0.049.

Regarding MSRB2 (UniProt Q9Y3D2), the log2 fold change was inactive: 0.047. As to MYCBP (UniProt Q99417), the log2 fold change is inactive: -0.043. As for MRPS11 (UniProt P82912), the log2 fold change is inactive: 0.11. To MRPS33 (UniProt Q9Y291) belongs inactive: -0.04; to MRTFA (UniProt Q969V6), inactive: -0.086. To MYL6B (UniProt P14649) belongs inactive: -0.005.
